Results from the supplement of paper PMC5407854, “Inhibitor of ppGalNAc-T3-mediated O-glycosylation blocks cancer cell invasiveness and lowers FGF23 levels” (eLife, 2017).
The list shows a part of the results. Most values lie at the level of the controls, where differences are scatter.

Experiments:
ppGalNAc-T2 sensor = assay: T2 sensor activation Q score (MG/GFP ratio z-score vs DMSO controls) (SD units); higher = more sensor activation (inhibition of ppGalNAc-T2 glycosylation); conditions: HEK293 sensor cells; 10 µM; 6 h
Description: (§1)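 Cells were treated with compound at 10 uM for 6 h, then MG/GFP ratio was read by flow cytometry (10,000 cells per well, duplicate wells). Q = (R - R_neg)/SD_neg relative to DMSO vehicle controls; the signal rises when the glycosyltransferase is inhibited.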

ppGalNAc-T3 sensor = assay: T3 sensor activation Q score (MG/GFP ratio z-score vs DMSO controls) (SD units); higher = more sensor activation (inhibition of ppGalNAc-T3 glycosylation); conditions: HEK293 sensor cells; 10 µM; 6 h
Description: as §1

SMILES | T2 sensor activation Q score (ppGalNAc-T2 sensor) | T3 sensor activation Q score (ppGalNAc-T3 sensor)
CN(C)C=NC(=O)CN1CCCC1=O | -0.255 | 
C=CCOc1ccccc1CN1CCN(c2ccccc2)CC1 | 0.405 | 0.615
COc1ccccc1N1CCN(Cc2ccc(C)cc2)CC1 | 0.345 | 
Cc1ccccc1CN1CCN(c2cccc(Cl)c2)CC1 | 0.275 | 
CN1CCC(O)(c2ccccc2)C(C(=O)c2ccccc2)C1 (stereo not drawn) | 0.955 | 
COc1ccc(Br)cc1CN1CCN(C)CC1 | 0.06 | 
COc1ccc(CN2CCN(C)CC2)cc1OC | 0.46 | 0.55
CCOc1ccccc1CN1CCN(c2ccccc2Cl)CC1 | -1.11 | 
CCN1CCN(Cc2cc(Br)c(OC)cc2OC)CC1 | 0.145 | -0.105
CC(C)N1CCN(Cc2cccc(F)c2)CC1 | -0.63 | 0.075
Fc1ccc(CN2CCN(c3cccc(Cl)c3)CC2)cc1 | -0.855 | 
COc1cccc(CN2CCN(C)CC2)c1OC | 0.69 | 
Cc1ccccc1CN1CCN(CCO)CC1 | 0.565 | 
Oc1c(Cl)cc(-c2cc(Cl)c(O)c(Cl)c2)cc1Cl | 0.4 | 
COc1cccc(N2CCN(Cc3cccc(Cl)c3)CC2)c1 | -0.38 | 0.815
CC(=O)c1ccc(N2CCN(Cc3cccc(F)c3)CC2)cc1 | 0.53 | -0.295
CCOc1ccccc1CN1CCN(c2ccccc2C)CC1 | -0.18 | 0.23
COc1ccc(OC)c(CN2CCN(c3ccc(F)cc3)CC2)c1 | -0.51 | 

SMILES | T2 sensor activation Q score (ppGalNAc-T2 sensor) | T3 sensor activation Q score (ppGalNAc-T3 sensor)
c1ccc(N2CCN(Cc3cccs3)CC2)cc1 | -0.535 | 
CC(=O)c1ccc(N2CCN(Cc3ccc(Br)cc3)CC2)cc1 | 0.685 | 
COc1ccc(/C=C/C2=CCN(C)CC2)cc1 | 0.01 | 
COc1ccc(CN2CCN(c3ccc(OC)cc3)CC2)cc1 | 0.26 | 
NCCc1c[nH]c2ccc(F)cc12 | -0.455 | 
O=[N+]([O-])c1ccc(N2CCN(Cc3ccc(Cl)cc3Cl)CC2)cc1 | 0.395 | 
CCOc1ccccc1CN1CCN(c2ccccc2)CC1 | -0.06 | 
COc1ccccc1CN1CCN(C)CC1 | -0.015 | 0.06
COc1ccccc1N1C(=O)CC(=O)NC1=O | 0.015 | -0.41
O=C(CN1CCCCC1)c1ccccc1 | -0.67 | 
O=[N+]([O-])c1cc(Cl)ccc1N1CCNCC1 | -0.48 | 0.26
COc1ccc(CN2CCN(c3ccccc3C)CC2)cc1 | -0.365 | 
Fc1cccc(CN2CCN(c3ccccc3)CC2)c1 | -0.37 | -0.4
COc1ccc(O)c(CN2CCN(c3cc(C)ccc3C)CC2)c1 | -2.15 | 
COc1ccccc1N1CCN(Cc2ccc(F)c(F)c2)CC1 | 0.265 | -0.215
CSc1ccc(CN2CCN(c3ccccc3C)CC2)cc1 | 0.77 | 
O=C1NC(=O)C(C(c2ccccc2)c2ccccc2)C(=O)N1 | 0.3 | 
COc1cccc(CN2CCN(c3cccc(Cl)c3)CC2)c1OC | -0.455 | 

2 entries from above, in markdown:

| SMILES | T2 sensor activation Q score (ppGalNAc-T2 sensor) | T3 sensor activation Q score (ppGalNAc-T3 sensor) |
| --- | --- | --- |
| c1ccc(N2CCN(Cc3cccs3)CC2)cc1 | -0.535 |  |
| CC(=O)c1ccc(N2CCN(Cc3ccc(Br)cc3)CC2)cc1 | 0.685 |  |
